Test results taken from PubChem BioAssay AID588590 (National Center for Advancing Translational Sciences (NCATS), 2011).
Screen size: about 390,000 compounds; about 4,000 (1%) were called active. The shares of active, inactive and inconclusive entries below differ from those in the screen. The call rests on the fitted dose curve; in most records, active means well fitted inhibition curve with a large enough effect; inconclusive means small, poorly fitted or top-dose-only effect, or another doubt; inactive means no such curve, though single readings can be large or run the other way. A potency beside an inconclusive call is a rough fit, not a confirmed value.

Protein sequences, listed by entry. Tags and fused reporters are not part of them. Lines headed by an entry give the natural chain unless they say otherwise; changes in a name come on top.
UniProt Q9UNA4: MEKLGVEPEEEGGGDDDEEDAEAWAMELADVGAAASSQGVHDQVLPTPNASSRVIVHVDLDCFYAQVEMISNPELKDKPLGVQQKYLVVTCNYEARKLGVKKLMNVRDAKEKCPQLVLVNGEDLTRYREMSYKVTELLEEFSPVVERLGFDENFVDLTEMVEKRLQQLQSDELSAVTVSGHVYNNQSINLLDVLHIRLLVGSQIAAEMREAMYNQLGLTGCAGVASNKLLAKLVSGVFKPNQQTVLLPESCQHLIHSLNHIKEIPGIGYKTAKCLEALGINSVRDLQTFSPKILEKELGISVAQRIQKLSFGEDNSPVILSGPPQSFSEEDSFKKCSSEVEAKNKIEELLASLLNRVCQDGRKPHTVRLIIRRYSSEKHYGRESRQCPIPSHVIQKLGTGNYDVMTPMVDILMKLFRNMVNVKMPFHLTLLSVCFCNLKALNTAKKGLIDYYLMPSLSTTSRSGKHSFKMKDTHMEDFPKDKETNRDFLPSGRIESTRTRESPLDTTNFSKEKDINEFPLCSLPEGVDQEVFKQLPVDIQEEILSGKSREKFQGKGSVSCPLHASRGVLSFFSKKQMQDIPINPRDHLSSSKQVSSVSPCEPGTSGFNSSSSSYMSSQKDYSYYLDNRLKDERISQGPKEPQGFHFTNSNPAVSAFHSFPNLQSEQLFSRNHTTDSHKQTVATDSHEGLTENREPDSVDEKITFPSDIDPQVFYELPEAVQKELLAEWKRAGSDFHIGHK

These compounds were tested against DNA polymerase iota (Homo sapiens) (UniProt Q9UNA4) (assay: qHTS for Inhibitors of Polymerase Iota). Settings: Pol iota fluorescent replication assay, 10 min; series mostly up to 115 µM; activity, negative = inhibition: at the top concentration.
In short: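 Fluorescent replication assay read twice, at 0 min and 10 min after adding 50 nM (final) substrate. Enzyme (10 nM) and compounds were first incubated 15 min at room temperature; enzyme-free buffer wells were negative controls.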
Potency means the concentration at half of the fitted maximal effect.

Potency, inconclusive:
CCOC(=O)N=S(N)(=O)c1ccc(Cl)cc1 (configuration not stated) 39.8 µM [inhibitor, single point]
C[C@@H](O)CC#Cc1ccc2oc(=O)c(-n3cc(-c4ccsc4)nn3)cc2c1 11.2 µM [inhibitor, single point]
O=C(CSc1n[nH]c(-c2ccco2)n1)Nc1ccccc1Cl 89.1 µM [inhibitor, single point]
c1coc(CSSCc2ccco2)c1 3.16 µM [inhibitor, full curve, poor fit]
O=[N+]([O-])c1nn(-c2ccc3c(c2)OCCO3)n(O)c1=NCc1ccccc1Cl 112 µM [inhibitor, single point]
Cn1ncc(Cl)c1C(=O)N1CCN(C23CC4CC(CC(C4)C2)C3)CC1 89.1 µM [inhibitor, single point]
CC(C)(CCl)C(=O)Nc1ccc(OC(F)(F)F)cc1 39.8 µM [inhibitor, single point]
O=C(OCn1ncc(Cl)c(Cl)c1=O)c1ccccc1Cl 14.1 µM [inhibitor, full curve, poor fit]
CCOC(=O)N1CCN(C(=O)CSc2ncnc3ccccc23)CC1 39.8 µM [inhibitor, single point]
CN(C)c1cccc(C(=O)Nc2ccc3nc4n(c(=O)c3c2)CCCCC4)c1 10 µM [inhibitor, partial curve, poor fit]
Cc1cc(NC(=O)c2ccc3c(c2)C(=O)N(C(C)(C)C)C3=O)no1 12.6 µM [inhibitor, partial curve, poor fit]
CSCCC(C(=O)OC1CCOC1=O)N1C(=O)c2ccccc2C1=O (configuration not stated) 56.2 µM [inhibitor, single point]
COC(=O)CCC(=O)OC1(C)C(=O)C2=CN(c3ccc(OC)cc3)C(c3ccc(OC)cc3)=CC2=C(Br)C1=O (configuration not stated) 17.8 µM [inhibitor, single point]
O=C(Nc1cc(F)ccc1F)c1cc2nc(-c3ccco3)cc(C(F)(F)Cl)n2n1 70.8 µM [inhibitor, partial curve, poor fit]
CN1CCN(c2nc3c(c(=O)n(C)c(=O)n3C)n2CC(N)=O)CC1 79.4 µM [inhibitor, single point]
COc1ccc(C(CNC(=O)c2oc3cc(C)c(Cl)cc3c2C)N2CCCCC2)cc1 (configuration not stated) 89.1 µM [inhibitor, single point]
Cc1c(O)ccc2c(CC(=O)N[C@@H](Cc3ccc(O)cc3)C(=O)O)cc(=O)oc12 89.1 µM [inhibitor, partial curve, poor fit]
COC(=O)c1c(NC(=O)/C=C/c2ccco2)sc2c1CCC2 89.1 µM [inhibitor, partial curve, poor fit]
O=C(Cn1nc(-c2ccc(Cl)cc2)c2ccccc2c1=O)Nc1cccc(C(F)(F)F)c1 50.1 µM [inhibitor, partial curve]
Cc1ccoc1C(=O)NCCNC(=O)c1occc1C 79.4 µM [inhibitor, partial curve, poor fit]
O=C(/C=C/c1ccco1)Nc1nc(-c2ccccn2)cs1 10 µM [inhibitor, partial curve, poor fit]
COc1ccc(OCCCC(=O)OCC(=O)Nc2ncc(Cl)cc2Cl)cc1 31.6 µM [inhibitor, partial curve, poor fit]
COc1ccc(CN(C)C(=S)Nc2ccc(OC(F)F)cc2)cc1 89.1 µM [inhibitor, single point]
COc1ccc(/C=C/C(=O)NCC(=O)N/N=C(/C)c2ccc(Cl)cc2)cc1 14.1 µM [inhibitor, partial curve, poor fit]
Cc1[nH]c2ccccc2c1/C=C/c1nccc2ccccc12 89.1 µM [inhibitor, single point]
CCC(N=c1cc(-c2ccc(OC)c(OC)c2)oc2ccc(C)cc12)C(=O)O (configuration not stated) 100 µM [inhibitor, partial curve, poor fit]
O=C(/C=C/c1ccccc1)c1ccccn1 15.8 µM [inhibitor, partial curve, poor fit]
CC(=O)Oc1ccc(OC(C)=O)c(SCCCCCN2CCOCC2)c1 20 µM [inhibitor, single point]
COc1cc(/C=N/Nc2nn3cnnc3c3ccccc23)ccc1O 17.8 µM [inhibitor, partial curve, poor fit]
CON1C(=O)C(=O)N(OC)C2CCCCC21 (configuration not stated) 70.8 µM [inhibitor, partial curve, poor fit]
Cn1nc(C(F)(F)F)c(-c2ccc(F)cc2)c1NC(=O)c1cccnc1 100 µM [inhibitor, single point]
CCOC(=O)C1CCCN(C2CC(=O)N(c3ccc(N4C(=O)CC(N5CCCC(C(=O)OCC)C5)C4=O)cc3)C2=O)C1 (configuration not stated) 56.2 µM [inhibitor, partial curve, poor fit]
Cc1cccc(CN2CCN(CC(C)C)C(CCO)C2)n1 (configuration not stated) 63.1 µM [inhibitor, single point]
CC(=O)c1ccc(NC(=O)CSc2cn(CC(=O)N(C(C)C)C(C)C)c3ccccc23)cc1 100 µM [inhibitor, partial curve, poor fit]
N#Cc1c(NC(=O)CN2CCCCC2)sc2c1CCC2 39.8 µM [inhibitor, partial curve]
Cn1c(SCC(=O)Nc2sc3c(c2C#N)CCC3)nnc1C1COc2ccccc2O1 (configuration not stated) 10 µM [inhibitor, full curve]
C/C(=C\c1ccc(C)o1)C(=O)c1c(C)cc(C)[nH]c1=O 50.1 µM [inhibitor, partial curve, poor fit]
CC(C)c1ccc(OCc2ccc(C(=O)O)o2)cc1 28.2 µM [inhibitor, full curve, poor fit]
COc1cccc(-n2nnc(-c3nc(-c4cccs4)no3)c2N)c1 89.1 µM [inhibitor, single point]
CC(C)Sc1nc(N2CCOCC2)c2c(c1C#N)CC(C)(C)N(C)C2 100 µM [inhibitor, single point]
Cc1ccc(SCCC(=O)OCC(=O)Nc2ncc(Cl)cc2Cl)cc1 44.7 µM [inhibitor, partial curve, poor fit]
Cc1ccc(NC(=O)C2CCN(c3ncnc4c3nc3n4CCCCC3)CC2)cc1Cl 6.31 µM [inhibitor, partial curve, poor fit]
O=C(Nc1ccc(Cl)cc1)NC1CCCCC1Cc1ccco1 (configuration not stated) 35.5 µM [inhibitor, single point]
CCC(=O)Nc1nnc(Sc2ccc(N(C)C)cc2)s1 50.1 µM [inhibitor, partial curve, poor fit]
Cc1cc(C)cc(NC(=O)Cn2c(=O)oc3cc(S(=O)(=O)N4CCC(C)CC4)ccc32)c1 89.1 µM [inhibitor, single point]
CCn1c2c(c(=O)n3ncc(C(=O)N4CCN(c5ccc(C(C)=O)cc5)CC4)c13)CN(Cc1ccc(OC)cc1)CC2 89.1 µM [inhibitor, single point]

Already shown: 13 of the compounds above.
Potency, inconclusive:
COc1ccc(CN(C)C(=S)Nc2ccc(OC(F)F)cc2)cc1 89.1 µM [inhibitor, single point]
COc1ccc(/C=C/C(=O)NCC(=O)N/N=C(/C)c2ccc(Cl)cc2)cc1 14.1 µM [inhibitor, partial curve, poor fit]
Cc1[nH]c2ccccc2c1/C=C/c1nccc2ccccc12 89.1 µM [inhibitor, single point]
CCC(N=c1cc(-c2ccc(OC)c(OC)c2)oc2ccc(C)cc12)C(=O)O (configuration not stated) 100 µM [inhibitor, partial curve, poor fit]
O=C(/C=C/c1ccccc1)c1ccccn1 15.8 µM [inhibitor, partial curve, poor fit]
CC(=O)Oc1ccc(OC(C)=O)c(SCCCCCN2CCOCC2)c1 20 µM [inhibitor, single point]
COc1cc(/C=N/Nc2nn3cnnc3c3ccccc23)ccc1O 17.8 µM [inhibitor, partial curve, poor fit]
CON1C(=O)C(=O)N(OC)C2CCCCC21 (configuration not stated) 70.8 µM [inhibitor, partial curve, poor fit]
Cn1nc(C(F)(F)F)c(-c2ccc(F)cc2)c1NC(=O)c1cccnc1 100 µM [inhibitor, single point]
CCOC(=O)C1CCCN(C2CC(=O)N(c3ccc(N4C(=O)CC(N5CCCC(C(=O)OCC)C5)C4=O)cc3)C2=O)C1 (configuration not stated) 56.2 µM [inhibitor, partial curve, poor fit]
Cc1cccc(CN2CCN(CC(C)C)C(CCO)C2)n1 (configuration not stated) 63.1 µM [inhibitor, single point]
CC(=O)c1ccc(NC(=O)CSc2cn(CC(=O)N(C(C)C)C(C)C)c3ccccc23)cc1 100 µM [inhibitor, partial curve, poor fit]
N#Cc1c(NC(=O)CN2CCCCC2)sc2c1CCC2 39.8 µM [inhibitor, partial curve]

Following part.

Potency, active:
C/C(=N/NC(=O)c1cc2ccccc2cc1O)c1ccco1 44.7 µM
C#CCNC(=O)C1=C[C@@H](c2ccc3c(c2)OCO3)C[C@@H](OCCCCO)O1 50.1 µM
COc1ccc(CN(C#N)c2nc(SC)nc(N(C)C)n2)cc1 89.1 µM
Cc1[nH]n(-c2ccccc2)c(=O)c1C=Nc1ccc(S(=O)(=O)N=C(N)N)cc1 50.1 µM

activity, negative = inhibition, inactive:
COc1ccc(C(CNC(=O)C(CC(C)C)NS(=O)(=O)c2ccc(C)cc2)N2CCOCC2)cc1 (configuration not stated) 0.0805%
O=C(CCCOc1ccccc1)N1CCN(c2ccc(F)cc2)CC1 11.9%
CCOC(=O)C1=C(COC(=O)COc2ccc(Br)cc2)NC(=O)NC1C (configuration not stated) 10.7%
CCOC(=O)c1c(NC(=O)/C=C\C(=O)O)sc(C)c1-c1ccccc1 10.4%
C=C1C=C(C)n2ncc(C(=O)Nc3ccccc3C(=O)OC)c2N1 9.23%
COc1ccc(OC)c(CNC(=O)C2CCN(c3ncnc4c3nc3n4CCCCC3)CC2)c1 -6.65%
Cc1ccc(S(=O)(=O)N(CC(=O)N/N=C/c2ccco2)Cc2ccccc2)cc1 56.9%
COC(=O)c1scc(-c2ccc(C)cc2)c1S(=O)(=O)N1CCN(c2ccc(C)cc2C)CC1 -2.04%
Cn1c(=O)c(=O)n(C)c2cc(C(=O)NCc3ccccc3Cl)ccc21 8.77%
COc1ccc(CC(=O)Nc2ccc(S(=O)(=O)Nc3cc(C)on3)cc2)cc1OC 3.25%
COCCCNC(=O)c1sc2nc(C)c(C(=O)Nc3ccc(C)cc3C)c(-c3ccccc3Cl)c2c1N 31.9%
COCCNC(=O)c1nn(-c2ccc(C)cc2)c(=O)n(C)c1=O -6.39%
Cc1ccccc1OCc1nc2ccccc2n1Cc1ccccc1Cl 21.5%
Cc1ccnc(NC(=O)c2ccc3c(c2)OCO3)c1 140%
C/C(=N\NC(=O)c1ccccc1O)c1cccc(NC(=O)c2ccccc2)c1 -2.99%
COCCn1c(C)cc(C(=O)COC(=O)c2ccc(N3CCCC3=O)cc2)c1C -12.7%
Cc1ccc(C)c(NC(=O)N2CCN3CCCCC3C2)c1 (configuration not stated) 52.7%
